Assay results from PubChem BioAssay AID504832 (National Center for Advancing Translational Sciences (NCATS), 2011).
What follows is the remainder of the data, with few or none of the hits. Results filed as inconclusive are left out. The source made the active and inactive calls. The call rests on the fitted dose curve; in most records, active means well fitted inhibition curve with a large enough effect; inconclusive means small, poorly fitted or top-dose-only effect, or another doubt; inactive means no such curve, though single readings can be large or run the other way.

Experiment: Primary qHTS for delayed death inhibitors of the malarial parasite plastid, 48 hour incubation
Details: P. falciparum luciferase growth in erythrocytes; at 28.7 µM (top of the series)
Description: The goal of this screen is to discover new antimalarial compounds that act by inhibiting the development of the apicoplast in the malarial parasite Plasmodium falciparum. The biochemical processes that make this organelle essential for erythrocytic stage parasites are not well understood. However, antibiotics such as azithromycin and tetracycline, which target the apicoplast translational machinery, have a potent antimalarial effect.
We have developed a cell-based assay that measures parasite growth based on the expression of an integrated copy of a firefly luciferase reporter. To detect small molecules that cause this "delayed death" phenotype, erythrocytes infected with the luciferase-expressing parasites were incubated with compounds for either one or two generations, corresponding to 48 and 96 hours, respectively. Compounds that inhibit parasite growth in the second generation, but not the first, should be enriched in antimalarials that target the apicoplast. Growth inhibition is detected by a decrease in luciferase activity.
Assay Provider: David Fidock and Eric Ekland, Columbia University
Keywords: NIH Roadmap, MLPCN, MLI, MLSMR, qHTS, NCGC, qHTS, malaria, luciferase, viability
Four microliters of culture medium (RPMI 1640 with 0.5% w/v Albumax (GIBCO), 24 mM sodium bicarbonate and 10 ug/mL gentamycin) were dispensed by a Multi-drop Combi into white solid 1536-well plates (Grenier) and 23 nL compound was added by a pin tool. Four microliters of infected erythrocytes (2% hematocrit, 0.1% parasitemia final concentration) in culture medium were dispensed and the plates incubated for 48 hours at 37 C in 5% CO2. Two microliters of luciferase detection reagent was added and luminescence was detected by a ViewLux (PerkinElmer) reader.
On the % scale 0 is the no-effect control and ±100 the full control effect.

| Structure (SMILES) | activity change, negative = inhibition |
| --- | --- |
| O=C1CC(c2ccccc2)Oc2cc(O)ccc21 (stereo not drawn) | inactive: 30.6% |
| O=c1ccc2ccc(OCc3ccccc3)cc2o1 | inactive: 91% |
| Cc1cc(=O)oc2cc(OCc3ccccc3)ccc12 | inactive: 90.7% |
